Measurements reported in PubChem BioAssay AID1259424 (University of Nebraska Medical Center, 2018)

- Purpose: 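Seek colon cancer survival genes behaving like KSR1, using a six-gene signature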 (primary screen)
- Cells: human HCT116 colon cancer cells
- Reagent: siRNA pool against human genes, 50 nM
- Measurement: 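Log2 levels of six mRNAs (branched-DNA multiplex), adjusted by two reference genes and the non-targeting median, then scored against the average KSR1 knockdown pattern as Pearson r and euclidean distance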
- Direction: mean correlation with KSR1 profile: higher = expression change more like KSR1 knockdown
The deposit covers about 14,000 reagents; this is an unselected part. 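Higher correlation or smaller distance means closer resemblance to KSR1 loss; control wells, including KSR1 knockdowns, recur on many plates.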 Not all columns of the deposit are shown. Reagent sequences are not shown. The record does not give: the time to read-out.

With knock-down of TMEM176A (GeneID 55365), the screen gave mean correlation with KSR1 profile -0.831.
AR (GeneID 367) gave mean correlation with KSR1 profile -0.0396.
Silencing of CYP26A1 (GeneID 1592) resulted in: mean correlation with KSR1 profile -0.355.
After knock-down of VNN2 (GeneID 8875) the results were mean correlation with KSR1 profile -0.491.
PINX1 (GeneID 54984) gave mean correlation with KSR1 profile 0.483.
CD19 (GeneID 930) showed mean correlation with KSR1 profile -0.603.
OR2A5 (GeneID 393046) showed mean correlation with KSR1 profile -0.538.
Depletion of WDFY3 (GeneID 23001) gave: mean correlation with KSR1 profile -0.0956.
Silencing of SNX12 (GeneID 29934) gave: mean correlation with KSR1 profile 0.0237.
Against GNB1 (GeneID 2782), the entry reads mean correlation with KSR1 profile 0.864.
Depletion of MARK1 (GeneID 4139) gave: mean correlation with KSR1 profile -0.0689.
After knock-down of MTMR4 (GeneID 9110), the record shows mean correlation with KSR1 profile 0.397.
KLRD1 (GeneID 3824) showed mean correlation with KSR1 profile 0.249.
After knock-down of TPD52L1 (GeneID 7164), the screen gave mean correlation with KSR1 profile 0.551.
Against MAP3K21 (GeneID 84451) the deposit lists mean correlation with KSR1 profile 0.185.
MEPE (GeneID 56955) gave mean correlation with KSR1 profile -0.128.
Against SF3B1 (GeneID 23451), the values are mean correlation with KSR1 profile -0.621.
After knock-down of CELA2B (GeneID 51032), the screen gave mean correlation with KSR1 profile -0.747.
With knock-down of CLCN6 (GeneID 1185), the record shows mean correlation with KSR1 profile -0.225.
With knock-down of NCOA5 (GeneID 57727), the screen gave mean correlation with KSR1 profile -0.778.
GRP (GeneID 2922) gave mean correlation with KSR1 profile -0.568.
KDM8 (GeneID 79831) gave mean correlation with KSR1 profile 0.493.
Silencing of TENT5C (GeneID 54855) gave: mean correlation with KSR1 profile 0.159.
With knock-down of LPA (GeneID 4018) the results were mean correlation with KSR1 profile 0.432.
After knock-down of SNX24 (GeneID 28966), the record shows mean correlation with KSR1 profile -0.288.
After knock-down of MINAR1 (GeneID 23251), the screen gave mean correlation with KSR1 profile 0.807.
For FBXO8 (GeneID 26269), the values are mean correlation with KSR1 profile 0.149.
APOB (GeneID 338) gave mean correlation with KSR1 profile 0.0125.
PYCR1 (GeneID 5831) scored mean correlation with KSR1 profile 0.364.
After knock-down of LETM1 (GeneID 3954) the results were mean correlation with KSR1 profile -0.339.
Silencing of PGM3 (GeneID 5238) gave: mean correlation with KSR1 profile 0.226.
SAYSD1 (GeneID 55776) gave mean correlation with KSR1 profile -0.243.
SCN10A (GeneID 6336) scored mean correlation with KSR1 profile 0.127.
NDUFS7 (GeneID 374291) showed mean correlation with KSR1 profile 0.0997.
With knock-down of PRNP (GeneID 5621) the results were mean correlation with KSR1 profile 0.631.
Depletion of ZNF74 (GeneID 7625) resulted in: mean correlation with KSR1 profile 0.0452.

As entered above.
Value for CD19 (GeneID 930) in “mean correlation with KSR1 profile”: -0.603
VNN2 (GeneID 8875), mean correlation with KSR1 profile: -0.491
Entry for PGM3 (GeneID 5238) in “mean correlation with KSR1 profile”: 0.226
Value for TPD52L1 (GeneID 7164) in “mean correlation with KSR1 profile”: 0.551
